In patent US5639715A, “Aqueous based drilling fluid additive and composition” (M-I Drilling Fluids LLC, priority 1994, dated 1997):
For at least one compound, name, drawing or mass did not settle the structure.

Experiments:
[1] = lubricity coefficient, Baroid lubricity meter (Table 4); format: physicochemical; conditions: 1% solution in deionized water
Protocol: A 1% solution of surfactant as in deionized water was tested on a Baroid lubricity meter (Model No. 21200-EP/Lubricity Tester). The lubricity coefficient of the samples were calculated and recorded in Table 4. Deionized water was used as base.

[2] = coefficient of friction on sandstone, Lubricity Evaluation Monitor (LEM) (Table 5); format: physicochemical
Protocol: The following experiment shower the lubricity properties of surfactants of this invention in 22.5 ppb bentonite slurry in water. The coefficient of friction on sandstone was determined using a Lubricity Evaluation Monitor (LEM) designed by M-I Drilling Fluids Company.

[3] = 1% in 22.5 ppb bentonite slurry
[4] = 4% in 22.5 ppb bentonite slurry

Compound: CC(C)COC(=O)CC(C(=O)OCC(C)C)S(=O)(=O)O (stereo not drawn) [Monawet MB-45, sodium diisobutylsulfosuccinate]
- Lubricity coefficient [1]: 0.13
- % Reduction (lubricity coefficient) ([1]; versus DI water): 61.76%
- % Reduction (coefficient of friction) [2, 3]: 8.1%
- Coefficient of Friction [2, 3]: 0.585
- % Reduction (coefficient of friction) [2, 4]: 60.5%
- Coefficient of Friction [2, 4]: 0.251
